PubChem BioAssay AID504791 – Drosophila RNAi Screening Center | 2011
The screen tested about 23,000 reagents; this is a random part of those with a known target gene and a result. Of all reagents, 199 (0.86%) got an active call. 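Plate-scaled ratios behind the calls are not deposited; printed light signals are raw; many rows marked increased or decreased are still called inactive.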 Reagent sequences are not shown. Not stated in the record: the direction of the score.

Aim: 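Factors in Argonaute-based small RNA production and activity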 (primary screen)
Cells: Drosophila S2-derived reporter cells
Reagents: long dsRNA against Drosophila genes, about 150-250 ng dsRNA per well (siRNA assay); about 80-120 ng (miRNA assay)
Duration: about 5 days (siRNA assay); about 4 days (miRNA assay)
Challenge: copper sulfate induction of reporters: 25 µM (siRNA assay); 200 mM stated (miRNA assay), 1-2 days before reading
Detection: 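Per-well ratio of Renilla over firefly light, expressed relative to that plate's average ratio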
Rule for the call: 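First-pass picks had plate-scaled ratios over 1.5 for the siRNA assay, over 1.6 for the miRNA assay, or under 0.6; two distinct dsRNAs had to score alike on retest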

| target | dsRNA | stable siRNA reporter change | miRNA reporter change | stable assay Renilla, run 1 (luminescence) | stable assay firefly, run 1 (luminescence) | outcome |
| --- | --- | --- | --- | --- | --- | --- |
| Srx (Sulfiredoxin) | DRSC20005 | – | – | 4803 | 3.17e5 | inactive |
| LysE (Lysozyme E) | DRSC08675 | – | – | 6670 | 4.21e5 | inactive |
| Vps26 (Vacuolar protein sorting 26) | DRSC18555 | – | – | 7480 | 3.25e5 | inactive |
| CG18171 | DRSC08524 | – | – | 6582 | 3.65e5 | inactive |
| CG11436 | DRSC17783 | – | – | 9049 | 5.26e5 | inactive |
| CG14606 | DRSC12550 | – | – | 6840 | 4.46e5 | inactive |
| CG13564 | DRSC04201 | – | – | 6387 | 4.31e5 | inactive |
| cic (capicua) | DRSC14276 | – | – | 5767 | 2.39e5 | inactive |
| cic (capicua) | DRSC15708 | – | – | 5295 | 1.93e5 | inactive |
| cic (capicua) | DRSC16918 | – | – | 6551 | 2.78e5 | inactive |
| cic (capicua) | DRSC21243 | – | – | 6478 | 4.06e5 | inactive |
| cic (capicua) | DRSC23217 | – | – | 5735 | 3.77e5 | inactive |
| CG40583 (retired record) | DRSC20938 | – | – | 3408 | 3.13e5 | inactive |
| CG30385 | DRSC06031 | – | – | 7564 | 4.63e5 | inactive |
| CG9386 | DRSC16485 | reporter ratio raised past the hit cutoff | reporter ratio raised past the hit cutoff | 9598 | 3.05e5 | active |
| Rrp40 (Ribosomal RNA processing 40) | DRSC00074 | – | – | 5936 | 4.32e5 | inactive |
| PIG-H (Phosphatidylinositol glycan anchor biosynthesis class H) | DRSC14856 | – | – | 7372 | 4.74e5 | inactive |
| MESR3 (Misexpression suppressor of ras 3) | DRSC02463 | – | – | 6670 | 4.37e5 | inactive |
| CG32572 | DRSC19525 | – | – | 6842 | 3.97e5 | inactive |
| CG32572 | DRSC19526 | – | – | 6326 | 4.54e5 | inactive |
| Ns2 (Nucleostemin 2) | DRSC06993 | – | – | 13116 | 5.52e5 | inactive |
| Obp99b (Odorant-binding protein 99b) | DRSC16264 | – | – | 6722 | 3.84e5 | inactive |
| Nap1 (Nucleosome assembly protein 1) | DRSC04626 | – | – | 24003 | 1.23e6 | inactive |
| Tdrd3 (Tudor domain containing 3) | DRSC10016 | – | – | 8459 | 3.52e5 | inactive |
| CG42843 (retired record) | DRSC01118 | – | – | 5283 | 4.64e5 | inactive |
| CG42843 (retired record) | DRSC02231 | – | – | 7135 | 4.47e5 | inactive |
| CG42843 (retired record) | DRSC02233 | – | – | 6946 | 2.95e5 | inactive |
| CG7856 | DRSC04896 | – | – | 5779 | 3.58e5 | inactive |
| CG31345 | DRSC14193 | – | – | 6528 | 4.01e5 | inactive |
| CG31345 | DRSC14847 | – | – | 6560 | 5.22e5 | inactive |
| Osi23 (Osiris 23) | DRSC15074 | – | – | 6183 | 3.95e5 | inactive |
| Mov10 (Mov10 RISC complex RNA helicase) | DRSC07012 | – | – | 11615 | 4.82e5 | inactive |
| Dis3 | DRSC16034 | – | – | 9453 | 3.07e5 | inactive |
| CG13124 | DRSC02220 | – | – | 42630 | 6.28e5 | inactive |
